From PMC8811898, “Structural Insights into Methylated DNA Recognition by the Methyl-CpG Binding Domain of MBD6 from Arabidopsis thaliana” come the findings set out here.

The target in the data set is T1, AtMBD6 MBD domain WT (Arabidopsis thaliana) (UniProt Q9LTJ1).
T1 sequence (looked up): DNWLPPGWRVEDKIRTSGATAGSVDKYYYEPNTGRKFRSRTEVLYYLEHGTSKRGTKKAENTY
Description: EMSA. The conditions noted are these: 20 uM protein, 4 uM DNA; 5-methylcytosine at position 7 of both strands (symmetric methyl-CpG); EMSA: 25 mM Tris, 25 mM boric acid, 150 mM NaCl, 5% glycerol, 1 mM DTT, 4 C, 30 min; recombinant protein; residues 78-140; protein details: GST removed by HRV3C, N-terminal GPLGS remains. A general note: Mobility shift assays separate free from complexed probe on a gel.

The exact form of at least one protein or probe is not confirmed. At least one verdict rests on a figure or table, not on a statement of the authors. Where a protein sequence is shown, tags need not be part of it.

Turning to GGTATGCGCATACC (double strand) [MG], the binding result is “binds”.
